Experimental data as given in paper PMC8384837.
Substitutions are numbered along the chain they refer to. Some of the results follow. For some of these results: At the low end of the ranking the order means little. For some of these results: Construct or isoform of the protein are uncertain.

Columns and labels:
Conditions in all cases: yeast three-hybrid, YBZ-1, SC-Leu-His + 0.5 mM 3-AT, 4 days
[1] = target: T1, PUM1 PUF domain R1-QFR R2-VFQ R7-NPG S863Q + R864F + Q867R + N899V + Y900F + S1079N + N1080P + E1083G (UniProt Q14671)
T1 sequence: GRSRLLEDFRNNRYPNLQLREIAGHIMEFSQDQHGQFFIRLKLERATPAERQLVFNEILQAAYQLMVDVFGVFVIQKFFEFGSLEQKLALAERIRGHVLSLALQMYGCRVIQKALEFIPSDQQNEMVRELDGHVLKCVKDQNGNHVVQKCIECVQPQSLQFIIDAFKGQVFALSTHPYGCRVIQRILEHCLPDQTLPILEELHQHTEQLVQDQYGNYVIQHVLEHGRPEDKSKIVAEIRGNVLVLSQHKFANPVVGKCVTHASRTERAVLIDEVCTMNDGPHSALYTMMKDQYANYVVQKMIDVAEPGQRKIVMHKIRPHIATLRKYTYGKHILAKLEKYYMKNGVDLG

[2] = target: T2, PUM1 PUF domain R2-VFQ R3-THE R4-TFR N899V + Y900F + C935T + R936H + Q939E + N971T + H972F + Q975R (UniProt Q14671)
T2 sequence: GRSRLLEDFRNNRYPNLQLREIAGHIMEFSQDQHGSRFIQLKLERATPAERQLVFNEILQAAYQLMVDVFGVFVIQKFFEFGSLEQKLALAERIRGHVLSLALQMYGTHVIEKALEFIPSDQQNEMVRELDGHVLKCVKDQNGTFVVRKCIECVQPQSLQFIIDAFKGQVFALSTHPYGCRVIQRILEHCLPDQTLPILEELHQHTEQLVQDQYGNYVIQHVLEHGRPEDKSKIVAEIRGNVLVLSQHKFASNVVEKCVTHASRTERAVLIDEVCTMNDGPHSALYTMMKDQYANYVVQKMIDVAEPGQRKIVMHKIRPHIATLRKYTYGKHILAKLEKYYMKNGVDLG

[3] = target: T3, PUM1 PUF domain R3-THE R4-TFR C935T + R936H + Q939E + N971T + H972F + Q975R (UniProt Q14671)
T3 sequence: T2 sequence with V72N, F73Y

[4] = target: T4, PUM1 PUF domain R5-PHQ R6-SWD C1007P + R1008H + N1043S + Y1044W + Q1047D (UniProt Q14671)
T4 sequence: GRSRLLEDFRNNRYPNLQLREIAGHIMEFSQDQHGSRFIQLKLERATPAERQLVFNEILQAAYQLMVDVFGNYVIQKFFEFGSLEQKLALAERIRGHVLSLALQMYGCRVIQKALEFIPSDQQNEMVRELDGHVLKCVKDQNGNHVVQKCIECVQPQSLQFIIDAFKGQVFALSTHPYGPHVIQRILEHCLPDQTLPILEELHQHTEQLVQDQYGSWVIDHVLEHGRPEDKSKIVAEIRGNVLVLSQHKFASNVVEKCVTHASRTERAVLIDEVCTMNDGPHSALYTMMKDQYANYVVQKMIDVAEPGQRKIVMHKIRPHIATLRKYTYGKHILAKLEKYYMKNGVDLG

[5] = target: T5, PUM1 PUF domain R6-SWD R7-NPG N1043S + Y1044W + Q1047D + S1079N + N1080P + E1083G (Homo sapiens) (UniProt Q14671)
T5 sequence: T4 sequence with P180C, H181R, S252N, N253P, E256G

[6] = target: T6, PUM1 PUF domain R3-THE R4-TFR R7-NPG C935T + R936H + Q939E + N971T + H972F + Q975R + S1079N + N1080P + E1083G (UniProt Q14671)
T6 sequence: T2 sequence with V72N, F73Y, S252N, N253P, E256G

[7] = target: T7, PUM1 PUF domain R3-THE R4-TFR R7-NPG C935T + R936H + Q939E + N971T + H972F + Q975R + S1079N + N1080P + E1083G (Homo sapiens) (UniProt Q14671)
T7 sequence: T2 sequence with V72N, F73Y, S252N, N253P, E256G

[8] = target: T8, PUM1 PUF domain R6-SWD R7-NPG N1043S + Y1044W + Q1047D + S1079N + N1080P + E1083G (UniProt Q14671)
T8 sequence: T4 sequence with P180C, H181R, S252N, N253P, E256G

## GGCUAGAACUAGUGGAUCCCCCGGCGCCCGGCGGCUCGAGCCCGGGUAAGUGUAACUCGUCUGCAUGCCGCCGGGCGCCAUGCCUGCAGGUCGACUCUAGAAAACAUG
[1]
  binding signal (log2 enrichment (interaction score)): -5.71
[2]
  binding signal (log2 enrichment (interaction score)): -3.93
[3]
  binding signal (log2 enrichment (interaction score)): < -6.86
[4]
  binding signal (log2 enrichment (interaction score)): < -8.39

## GGCUAGAACUAGUGGAUCCCCCGGCGCCCGGCGGCUCGAGCCCGGGUAAGUCAAAAUCGUCUGCAUGCCGCCGGGCGCCAUGCCUGCAGGUCGACUCUAGAAAACAUG
[1]
  binding signal (log2 enrichment (interaction score)): -6.77
[2]
  binding signal (log2 enrichment (interaction score)): -5.86
[3]
  binding signal (log2 enrichment (interaction score)): < -6.38
[4]
  binding signal (log2 enrichment (interaction score)): -7.15

## GGCUAGAACUAGUGGAUCCCCCGGCGCCCGGCGGCUCGAGCCCGGGUAAGUUUAAAUCGUCUGCAUGCCGCCGGGCGCCAUGCCUGCAGGUCGACUCUAGAAAACAUG
[1]
  binding signal (log2 enrichment (interaction score)): -4.47
[2]
  binding signal (log2 enrichment (interaction score)): -5.25
[3]
  binding signal (log2 enrichment (interaction score)): -6.96
[4]
  binding signal (log2 enrichment (interaction score)): -7.32
[5]
  binding signal (log2 enrichment (interaction score)): -0.72

## GGCUAGAACUAGUGGAUCCCCCGGCGCCCGGCGGCUCGAGCCCGGGUAAGGUGAUUAAGUCUGCAUGCCGCCGGGCGCCAUGCCUGCAGGUCGACUCUAGAAAACAUG
[1]
  binding signal (log2 enrichment (interaction score)): -6.6
[2]
  binding signal (log2 enrichment (interaction score)): -5.55
[6]
  binding signal (log2 enrichment (interaction score)): -2.03
[5]
  binding signal (log2 enrichment (interaction score)): -0.93

## GGCUAGAACUAGUGGAUCCCCCGGCGCCCGGCGGCUCGAGCCCGGGUAAGAGGUCAGCGUCUGCAUGCCGCCGGGCGCCAUGCCUGCAGGUCGACUCUAGAAAACAUG
[1]
  binding signal (log2 enrichment (interaction score)): -4.26
[2]
  binding signal (log2 enrichment (interaction score)): -5.68
[7]
  binding signal (log2 enrichment (interaction score)): -1.15
[4]
  binding signal (log2 enrichment (interaction score)): -8.51
[8]
  binding signal (log2 enrichment (interaction score)): -2.19

## GGCUAGAACUAGUGGAUCCCCCGGCGCCCGGCGGCUCGAGCCCGGGUAAGACUUAGUAGUCUGCAUGCCGCCGGGCGCCAUGCCUGCAGGUCGACUCUAGAAAACAUG
[1]
  binding signal (log2 enrichment (interaction score)): -6.17
[2]
  binding signal (log2 enrichment (interaction score)): -5.6
[4]
  binding signal (log2 enrichment (interaction score)): < -7.61

## GGCUAGAACUAGUGGAUCCCCCGGCGCCCGGCGGCUCGAGCCCGGGUAAGUUUACGAUGUCUGCAUGCCGCCGGGCGCCAUGCCUGCAGGUCGACUCUAGAAAACAUG
[1]
  binding signal (log2 enrichment (interaction score)): -6.45
[2]
  binding signal (log2 enrichment (interaction score)): -6.06
[6]
  binding signal (log2 enrichment (interaction score)): -2.12

## GGCUAGAACUAGUGGAUCCCCCGGCGCCCGGCGGCUCGAGCCCGGGUAAGUAGGAAAAGUCUGCAUGCCGCCGGGCGCCAUGCCUGCAGGUCGACUCUAGAAAACAUG
[1]
  binding signal (log2 enrichment (interaction score)): -5.45
[2]
  binding signal (log2 enrichment (interaction score)): -5.74
[4]
  binding signal (log2 enrichment (interaction score)): < -6.93
